Percent effect of library compounds

Source: ChEMBL document CHEMBL3988442, “University of Dundee, Small-Polar-MMV Screening Library” (2021).

Mtb cholesterol medium: 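Phenotypic screen: M. tuberculosis growth, cholesterol and DPPC medium, 4 days; the read-out is not stated. Tested at 50 µM. Direction is inferred from retests: higher values go with more growth inhibition. About 69,000 compounds were tested under these conditions; 0.54% (about 370) showed 50% or more at least once.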
Mtb glucose medium: 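Growth of Mycobacterium tuberculosis over 3 days (7H9 medium with glucose and tyloxapol); the read-out is not stated. Compounds at 50 µM. Higher reads as more growth inhibition (inferred: compounds with an IC50 in retests scored well above the rest). About 69,000 compounds were tested under these conditions; 1.1% (about 760) showed 50% or more at least once.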

Each number is a percent effect as filed. How 0% and 100% were set is not recorded. Most values in the screen are low, and negative values occur. The compounds are a random part of those screened. Two or more numbers in one place are separate tests of the same structure; such repeats can differ widely.

compound | Mtb cholesterol medium | Mtb glucose medium
Cc1nc(CN2CCCC(N(C)Cc3nnsc3Cl)C2)no1 (stereo unspecified) | -1.495% | 15.06%
Cc1nn(C)cc1-c1ccnc(N(C)Cc2ccon2)n1 | -11.51% | -26.45%
CC(=O)NCCNC(=O)c1sc(-c2ccc(Cl)cc2)nc1C | -6.403% | -15.53%
COCCC1(C(=O)O)CCCN(CCOCc2ccccc2)C1 (stereo unspecified) | 0.5577% | 20.29%
COC(=O)CCN(CC1CCOC1)C1CC1 (stereo unspecified) | 24.92% | 29.16%
Cc1nc(CNC(=O)NCCC2=CCCC2)oc1C | 1.78% | -27.3%
CN(C)[C@@H]1CCN(C(=O)c2ccccn2)[C@H]1Cc1cnn(C)c1 | -0.03497% & -3.592% | -13.83%
CCCN1CCN(C(=O)CCn2cccc2)CC1 | 23.47% | 30.29%
Cc1nnc(SCCCNC(=O)Cc2ccc3c(c2)OCO3)s1 | 12.45% | 8.073% & 11.87%
COCCNC(=O)C1CN(Cc2ccncc2)Cc2ccnn2C1.O=C(O)C(F)(F)F.O=C(O)C(F)(F)F.O=C(O)C(F)(F)F (stereo unspecified) | -27.81% | 1.153%
CCc1nn(C)c(Cl)c1CN1CCN(c2ccc(C(N)=O)cn2)CC1 | -7.499% | 70.23% & 6.797%
Cc1cc(CN(C)C(=O)C(c2ccccc2C)N(C)C)on1 (stereo unspecified) | -11.53% & -2.751% | 8.658%
CC(=O)NCc1nc(Cc2cccc(Cl)c2)nn1C1CCN(C)CC1 | -20.63% | -24.74%
[H][C@]12CC[C@]([H])(CN(Cc3cccnc3)C1)N(C(=O)CC1CCCCC1)C2 | 5.432% | 6.481%
CCc1noc(CNc2nc(-c3cccnc3)nc3c2CCNCC3)n1 | 12.22% | 39.55%
CCc1nc(C2CCCN2c2ncc(Br)cn2)no1 (stereo unspecified) | -6.694% | -9.783%
Fc1ccc(CN2CCC(c3noc(-c4cnccn4)n3)CC2)cc1F | 8.572% | 10.27%
CC1CCN(CC(O)CNc2ccccn2)CC1 (stereo unspecified) | 10.1% | 0.5905%
CCOCC(O)CN1CCN(C(=O)c2cc(F)cc(F)c2)CC1 (stereo unspecified) | 7.875% | 8.3%
Cc1ccc(Cl)cc1NC(=O)C1CC(=O)N(Cc2ccccn2)C1 (stereo unspecified) | -12.26% | -10.36%
CC(C)c1cc(-c2nn3c(C(C)C)nnc3s2)[nH]n1 | 11.66% | 15.94% & 30.65%
COc1ccccc1OCCCc1cc(C#N)ccn1 | 17.69% | 32.58%
CCS(=O)(=O)N(C)c1ccc(C(=O)N2CCCC(C)C2)cc1 (stereo unspecified) | -10.05% | 12.45% & -3.828%
Cc1nc(CN2CCN(C(=O)c3ccc(=O)n(C)c3)CC2)cs1 | 11.11% | 9.28%
O=C(Nc1cccnc1)C1CCN(c2cc(-n3ccnc3)ncn2)CC1 | 0.2603% | 2.428% & 4.574%
CCCc1cc(=O)[nH]c(-n2nc(-c3cccs3)cc2N)n1 | 18.19% | 12.72%
COCC1CN(C(=O)c2cccn2C)Cc2ncnn2C1 (stereo unspecified) | -16.85% | -14.34%
COc1ccc(C)cc1-n1cnnc1C1CCCN(C)C1 (stereo unspecified) | -32.98% | -2.221%
CC(c1nc(C2CC2)no1)N1CCN(CCS(C)(=O)=O)CC1 (stereo unspecified) | 10.41% | 4.721%
CN(C)c1cccc(C(=O)NCC2(O)CCOCC2)c1 | 18.17% | -2.967% & 9.7%
Cc1c(Br)cccc1C(=O)NCCC1CCCNC1.Cl (stereo unspecified) | -15.91% | 8.076% & 2.418%
COCCN(Cc1ccccc1)Cc1nc(-c2ccsc2)no1 | 39.21% | 43.73% & 37.85%
Cc1noc(CCCC(=O)NCC(c2ccco2)N2CCCC2)n1 (stereo unspecified) | 15.11% | 3.55% & 10.26%
O=C(O)c1coc(COc2cccc(F)c2)n1 | 6.167% | 22.05%
O=C(O)C(F)(F)F.[H][C@@]12OCCN(C(=O)c3cc(C)[nH]c3C)[C@@]1([H])CC[C@H]2Oc1ccccn1 | -15.81% & -20.14% | -14.73%
CCn1cc(C(=O)N2CCCC(c3[nH]ncc3S(C)(=O)=O)C2)cn1 (stereo unspecified) | -11.53% | 11.8%
CC1CCN(C(=O)C(C)N2CCc3[nH]nc(C(F)(F)F)c3C2)CC1 (stereo unspecified) | -8.862% | -18.89% & -3.362%
O=C(CCNC(=O)c1cccc(OC(F)F)c1)Nc1cccnc1 | 2.3% | 17.61%
CCCc1noc(CCC(=O)N2CCCC2c2cccc(OC)c2)n1 (stereo unspecified) | -10.04% | -16.43%
COCCn1cc(CC(=O)Nc2cc(C)n(C)n2)c2ccccc21 | -4.093% | 10.45% & 14.22%
N#Cc1cccc(NS(=O)(=O)c2ccc(C(=O)O)cc2F)c1 | 1.889% | 20.37%
COc1cccc(CNC(=O)CCC2=Nc3ccccc3S(=O)(=O)N2)c1 | 5.27% | 24.12%
c1ccc(N2CCCC2)c(NCc2ccncc2)c1 | -8.124% | -14.11%
Cn1ccc(C(=O)Nc2nc(-c3ccc4c(c3)CCO4)cs2)cc1=O | 9.956% | 3.968%
CCN(C(c1cccnc1)c1cc(C)cc(C)c1)S(C)(=O)=O (stereo unspecified) | 4.215% | 6.335% & 24.37%
O=C(O)C(F)(F)F.[H][C@@]12CCN(CC3CC3)[C@@]1([H])CCN2C(=O)c1cccn1C | 8.003% | 13.04% & -4.168%
CN(CCN1CCCCC1=O)Cc1cc2cc3c(cc2[nH]c1=O)OCO3 | 23.96% | 2.7% & -8.515%
CCn1nnc2c1C(COCCN(C)C)CN(Cc1ccc(C)s1)C2.O=C(O)C(F)(F)F.O=C(O)C(F)(F)F (stereo unspecified) | -11.96% | 9.62%
Cc1nc(-c2nc(C(=O)N3CCOCC3)c3ccccn23)cn1C(C)C | -11.78% | -1.427% & 16.84%
O=C(O)C(F)(F)F.[H][C@]12CCN(C(C)=O)CC[C@@]1([H])S(=O)(=O)N(Cc1ccncc1)C2 | 3.501% | 1.776% & 7.223%
Cc1cc(C(=O)NCCc2nc3c(s2)CCCC3)n(C)n1 | -5.55% & 8.489% | 19.63%
CCc1nnc2n1CCN(C(=O)c1ccc3c(c1)nnn3C)C2 | 1.08% | 3.37%
COc1ccc2[nH]c3c(N(C)CC4OCCO4)ncnc3c2c1 | 7.242% | -9.367% & 7.065%
Cc1nc(S(=O)(=O)N2CCc3[nH]nc(CCC(C)C)c3C2)cn1C | 15.74% | -6.934%
Cc1ccsc1CN1CCn2c(COc3cccnc3)cnc2C1C.O=C(O)C(F)(F)F.O=C(O)C(F)(F)F (stereo unspecified) | -16.26% | -24.95%
OCC1(Cc2ccccc2F)CCCN(c2ccc3ccccc3n2)C1 (stereo unspecified) | 3.021% | 19.95%
CN1CC(Nc2nc3c(cnn3C(C)(C)C)c(=O)[nH]2)CCC1=O (stereo unspecified) | -22.65% | 18.01%
CCSc1ncc(CN2CCN(c3nc(C)ncc3C)CC2)cn1 | 33.93% | 19.37%
COc1cccc(-c2n[nH]cc2CNC2CCN(C(C)C)CC2)c1.Cl | -0.1302% | 6.446%
CCOc1ccc(-c2ccnc(C)n2)cc1C(=O)O | -20.99% | -16.75%
CCn1nc2c(cc1=O)CN(Cc1nc(-c3cccs3)no1)CC2 | 33.68% | 24.44%
O=C1CC(c2cccc(O)c2)c2sc(C(=O)O)c(-c3ccccc3)c2N1 (stereo unspecified) | -67.16% | -68.78%
COc1ccc(S(=O)(=O)N2CC(CC(=O)O)c3ccccc32)cc1 (stereo unspecified) | -17.56% | -22.19%
[H][C@]12CCN(c3ccc(Cl)cn3)C[C@]1(COC)CC[C@@H](N1CCOCC1)C2 | 20.04% | 11.91%
COc1cccc(Cn2[nH]c(C)c3c(NC(=O)C(C)OC)nnc2-3)c1 (stereo unspecified) | 4.416% | -8.847% & 0.9445%
CCCn1nnc(NCc2ccc(-c3ccc(Br)cc3)o2)n1 | 14.46% | 10.86% & 29.41%
O=C1NC2(Nc3ncccc31)C(=O)Nc1c2ccc(Cl)c1F (stereo unspecified) | -1.921% | -19.3%
Cc1ccc(-c2nc(CN3CCn4c(nnc4C4CC4)C3)no2)cc1 | -11.42% | 0.2449% & -14.28%
NC(=O)c1ccc(N2CCCCC2)c(NC(=O)c2ccc(F)cc2Cl)c1 | -21.41% | -23.95% & 0.2175%
O=C(c1ccc[nH]1)N1CCC(c2nccn2Cc2ccncc2)CC1 | -10.41% | -4.148% & -6.988%
NC(=O)c1cc2c(nc1CCOCc1ccccc1)CCC2 | -3.387% | 22.08% & -17.9%
COCCN1CCC2(CC1)COc1ccccc1S(=O)(=O)N(C)C2 | -3.078% | -29.68%
Cc1ccc2nc(C)cc(NCCNS(=O)(=O)c3cn(C)nc3C)c2c1 | -2.918% | 13.35%
Cc1cc(C)n(C2CN(CC(O)c3ccc(S(C)(=O)=O)cc3)C2)n1 (stereo unspecified) | -25.21% | 19.69%
O=C(C1CCOCC1)N1CCC2(CCNCC2)C1 | 17.47% | -7.515%
NC(=O)C1CN(C(=O)c2ccc(F)cc2)CCN1CCc1ccccc1 (stereo unspecified) | -5.598% | 14.94%
COc1cccc(CN2CCC3(CC2)CCN(c2ncc(C)cn2)C3)c1.O=C(O)C(F)(F)F | -0.451% | 9.805% & 4.536%
O=C(O)C(F)(F)F.[H][C@@]12CN(Cc3cc(C)cc(C)c3)C[C@]1([H])OCCN2CC(=O)N(C)C | -7.128% | -32.62%
CC1CCN(C(=O)Cc2ccc(S(=O)(=O)C(F)F)cc2)CC1 | 27.07% | 32.25%
Cc1nc(CCNC(=O)C(N)c2c(C)n[nH]c2C)sc1C (stereo unspecified) | -21.86% | -20.28%
CCN1Cc2ccccc2CC2(CCN(CC(=O)O)CC2)C1=O.O=C(O)C(F)(F)F | -14.95% | -37.59%